{"source": "the supplement of paper PMC8047044", "note": "Some of the results follow. Repeats are few or missing, and single values can be far off.", "data": [{"tested_on": "Neuro-2a", "test": "neurite formation score, plate-normalized to DMSO control mean 5.04 (score (0-8 scale)); higher = more or longer neurites", "conditions": "10 µM", "values": [{"molecule": "COC[C@H]1OC(=O)c2coc3c2[C@@]1(C)C1=C(C3=O)[C@@H]2CCC(=O)[C@@]2(C)C[C@H]1OC(C)=O", "note": "[Wortmannin]", "neurite formation score": 5.43}, {"molecule": "O=c1[nH]c2ccc(Cl)cc2c(N[C@@H]2CN3CCC2CC3)c1-c1nc2ccccc2[nH]1", "neurite formation score": 4.43}, {"molecule": "CCN1CCN(C(=O)Cc2ccc(Nc3ncc(F)c(Nc4ccc(C(=O)Nc5ccccc5Cl)cc4)n3)cc2)CC1", "note": "[Aurora A Inhibitor I]", "neurite formation score": 4.08}, {"molecule": "Cn1cc(C2=C(c3cn(C4CCN(Cc5ccccn5)CC4)c4ccccc34)C(=O)NC2=O)c2ccccc21", "neurite formation score": 0.209}, {"molecule": "CC(C)(C)c1cc(C=C(C#N)C#N)cc(Br)c1O", "neurite formation score": 2.54}, {"molecule": "COc1cc([C@@H]2c3cc4c(cc3[C@H](O)[C@H]3COC(=O)[C@@H]23)OCO4)cc(OC)c1OC", "neurite formation score": 1.21}, {"molecule": "N#CC(C#N)=Cc1ccc(O)c(O)c1", "neurite formation score": 4.54}, {"molecule": "O=c1[nH]c2ccccc2n1C1CCN(Cc2ccc(-c3[nH]c4cc5ncnc5cc4nc3-c3ccccc3)cc2)CC1", "note": "[AKT inhibitor VIII]", "neurite formation score": 4.21}, {"molecule": "COc1ccc(N(C(=O)Oc2c(C)cccc2C)c2ccnc(Nc3ccc(N4CCN(C)CC4)cc3)n2)c(OC)c1", "neurite formation score": 2.19}, {"molecule": "Cc1ccccc1-n1c(Cn2cnc3c(N)ncnc32)nc2cccc(C)c2c1=O", "neurite formation score": 4.86}, {"molecule": "CC(C)(C)c1cc(C=C(C#N)C#N)cc(C(C)(C)C)c1O", "note": "[Tyrphostin 9]", "neurite formation score": 3.43}, {"molecule": "COc1ccc2c(c[n+](C)c3c4cc5c(cc4ccc23)OCO5)c1OC", "note": "[Chelerythrine Chloride]", "neurite formation score": -0.124}]}]}
